# Measurements: the supplement of paper PMC8728848
# The other results are listed elsewhere or left out.
# B1: Endo180d1-D4 (Homo sapiens), Q9UBG0 (protein)
# chain: MGPGRPAPAPWPRHLLRCVLLLGCLHLGRPGAPGDAALPEPNVFLIFSHGLQGCLEAQGGQVRVTPACNTSLPAQRWKWVSRNRLFNLGTMQCLGTGWPGTNTTASLGMYECDREALNLRWHCRTLGDQLSLLLGARTSNISKPGTLERGDQTRSGQWRIYGSEEDLCALPYHEVYTIQGNSHGKPCTIPFKYDNQWFHGCTSTGREDGHLWCATTQDYGKDERWGFCPIKSNDCETFWDKDQLTDSCYQFNFQSTLSWREAWASCEQQGADLLSITEIHEQTYINGLLTGYSSTLWIGLNDLDTSGGWQWSDNSPLKYLNWESDQPDNPSEENCGVIRTESSGGWQNRDCSIALPYVCKKKPNATAEPTPPDRWANVKVECEPSWQPFQGHCYRLQAEKRSWQESKKACLRGGGDLVSIHSMAELEFITKQIKQEVEELWIGLNDLKLQMNFEWSDGSLVSFTHWHPFEPNNFRDSLEDCVTIWGPEGRWNDSPCNQSLPSICKKAGQLSQGAAEEDHGCRKGWTWHSPSCYWLGEDQVTYSEARRLCTDHGSQLVTITNRFEQAFVSSLIYNWEGEYFWTALQDLNSTGSFFWLSGDEVMYTHWNRDQPGYSRGGCVALATGSAMGLWEVKNCTSFRARYICRQSLGTPVTPELPGPDPTPSLTGSCPQGWASDTKLRYCYKVFSSERLQDKKSWVQAQGACQELGAQLLSLASYEEEHFVANMLNKIFGESEPEIHEQHWFWIGLNRRDPRGGQSWRWSDGVGFSYHNFDRSRHDDDDIRGCAVLDLASLQWVAMQCDTQLDWICKIPRGTDVREPDDSPQGRREWLRFQEAEYKFFEHHSTWAQAQRICTWFQAELTSVHSQAELDFLSHNLQKFSRAQEQHWWIGLHTSESDGRFRWTDGSIINFISWAPGKPRPVGKDKKCVYMTASREDWGDQRCLTALPYICKRSNVTKETQPPDLPTTALGGCPSDWIQFLNKCFQVQGQEPQSRVKWSEAQFSCEQQEAQLVTITNPLEQAFITASLPNVTFDLWIGLHASQRDFQWVEQEPLMYANWAPGEPSGPSPAPSGNKPTSCAVVLHSPSAHFTGRWDDRSCTEETHGFICQKGTDPSLSPSPAALPPAPGTELSYLNGTFRLLQKPLRWHDALLLCESHNASLAYVPDPYTQAFLTQAARGLRTPLWIGLAGEEGSRRYSWVSEEPLNYVGWQDGEPQQPGGCTYVDVDGAWRTTSCDTKLQGAVCGVSSGPPPPRRISYHGSCPQGLADSAWIPFREHCYSFHMELLLGHKEARQRCQRAGGAVLSILDEMENVFVWEHLQSYEGQSRGAWLGMNFNPKGGTLVWQDNTAVNYSNWGPPGLGPSMLSHNSCYWIQSNSGLWRPGACTNITMGVVCKLPRAEQSSFSPSALPENPAALVVVLMAVLLLLALLTAALILYRRRQSIERGAFEGARYSRSSSSPTEATEKNILVSDMEMNEQQE
# Legend:
# Assay in all cases: glycan array binding signal (z-score within array); higher = stronger binding
# Conditions in all cases: glycan notation: IUPAC condensed, linker removed
# [1] = target: Gal(b1-4)GlcNAc(b1-6)GalNAc
# Outline: (§1)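 Arrays were curated from the Consortium for Functional Glycomics database, 3228 in total, and kept only where the protein sequence was available. Binding is expressed as a within-array Z-score. This score was averaged across arrays of the same protein sequence at different concentrations or buffers and across linkers, and negative values can be read as non-binding.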
# [2] = target: Gal(b1-4)GlcNAc(b1-6)[Gal(b1-3)]GalNAc
# Outline: as §1
# [3] = target: Gal(b1-4)GlcNAc(b1-6)[Gal(b1-4)GlcNAc(b1-3)]GalNAc
# Outline: as §1
# Gal(b1-4)GlcNAc6P = target: Gal(b1-4)GlcNAc6P
# Outline: as §1
# Gal(b1-6)Gal = target: Gal(b1-6)Gal
# Outline: as §1
# Gal3S(b1-3)GalNAc = target: Gal3S(b1-3)GalNAc
# Outline: as §1
# Gal3S(b1-3)GlcNAc = target: Gal3S(b1-3)GlcNAc
# Outline: as §1
# [4] = target: Gal3S(b1-3)[Fuc(a1-4)]GlcNAc
# Outline: as §1
# Gal3S(b1-4)Glc = target: Gal3S(b1-4)Glc
# Outline: as §1
# Gal3S(b1-4)Glc6S = target: Gal3S(b1-4)Glc6S
# Outline: as §1
# Gal3S(b1-4)GlcNAc = target: Gal3S(b1-4)GlcNAc
# Outline: as §1
# Gal3S(b1-4)GlcNAc6S = target: Gal3S(b1-4)GlcNAc6S
# Outline: as §1
# [5] = target: Gal3S(b1-4)[Fuc(a1-3)]Glc6S
# Outline: as §1
# [6] = target: Gal3S(b1-4)[Fuc(a1-3)]GlcNAc
# Outline: as §1
# [7] = target: Gal3S(b1-4)[Fuc(a1-3)]GlcNAc6S
# Outline: as §1
# Gal3S4S(b1-4)GlcNAc = target: Gal3S4S(b1-4)GlcNAc
# Outline: as §1
# Gal3S6S(b1-4)GlcNAc = target: Gal3S6S(b1-4)GlcNAc
# Outline: as §1
# Gal3S6S(b1-4)GlcNAc6S = target: Gal3S6S(b1-4)GlcNAc6S
# Outline: as §1
# Gal4S(b1-4)GlcNAc = target: Gal4S(b1-4)GlcNAc
# Outline: as §1
# Gal4S6S(b1-4)GlcNAc = target: Gal4S6S(b1-4)GlcNAc
# Outline: as §1
# Gal6P(b1-4)GlcNAc = target: Gal6P(b1-4)GlcNAc
# Outline: as §1
# Gal6S(b1-3)GlcNAc = target: Gal6S(b1-3)GlcNAc
# Outline: as §1
# Gal6S(b1-3)GlcNAc6S = target: Gal6S(b1-3)GlcNAc6S
# Outline: as §1
# Gal6S(b1-4)Glc = target: Gal6S(b1-4)Glc
# Outline: as §1
# Gal6S(b1-4)Glc6S = target: Gal6S(b1-4)Glc6S
# Outline: as §1
# Gal6S(b1-4)GlcNAc = target: Gal6S(b1-4)GlcNAc
# Outline: as §1
# Gal6S(b1-4)GlcNAc6S = target: Gal6S(b1-4)GlcNAc6S
# Outline: as §1
# GalNAc(a1-3)Gal = target: GalNAc(a1-3)Gal
# Outline: as §1
# GalNAc(a1-3)GalNAc = target: GalNAc(a1-3)GalNAc
# Outline: as §1
# [8] = target: GalNAc(a1-3)GalNAc(b1-3)Gal(a1-4)Gal(b1-4)Glc
# Outline: as §1
# [9] = target: GalNAc(a1-3)GalNAc(b1-3)Gal(a1-4)Gal(b1-4)GlcNAc
# Outline: as §1
# GalNAc(b1-3)Gal = target: GalNAc(b1-3)Gal
# Outline: as §1
# [10] = target: GalNAc(b1-3)Gal(a1-4)Gal(b1-4)GlcNAc
# Outline: as §1
# [11] = target: GalNAc(b1-3)Gal(a1-4)Gal(b1-4)GlcNAc(b1-3)Gal(b1-4)Glc
# Outline: as §1
# [12] = target: GalNAc(b1-3)Gal(a1-6)Gal(b1-4)Glc
# Outline: as §1
# GalNAc(b1-3)GalNAc = target: GalNAc(b1-3)GalNAc
# Outline: as §1
# GalNAc(b1-3)GlcNAc = target: GalNAc(b1-3)GlcNAc
# Outline: as §1
# GalNAc(b1-4)Gal(b1-4)Glc = target: GalNAc(b1-4)Gal(b1-4)Glc
# Outline: as §1
# GalNAc(b1-4)GlcNAc = target: GalNAc(b1-4)GlcNAc
# Outline: as §1
# [13] = target: GalNAc(b1-4)GlcNAc(b1-2)Man
# Outline: as §1
# [14] = target: GalNAc(b1-4)GlcNAc(b1-2)Man(a1-3)[GalNAc(b1-4)GlcNAc(b1-2)Man(a1-6)]Man(b1-4)GlcNAc(b1-4)GlcNAc
# Outline: as §1
# [15] = target: GalNAc(b1-4)GlcNAc(b1-3)GalNAc(b1-4)GlcNAc
# Outline: as §1
# GalNAc(b1-4)GlcNAc6S = target: GalNAc(b1-4)GlcNAc6S
# Outline: as §1
# GalNAc(b1-6)GalNAc = target: GalNAc(b1-6)GalNAc
# Outline: as §1
# GalNAc3S(b1-4)GlcNAc = target: GalNAc3S(b1-4)GlcNAc
# Outline: as §1
# GalNAc3S(b1-4)GlcNAc3S = target: GalNAc3S(b1-4)GlcNAc3S
# Outline: as §1
# [16] = target: GalNAc3S(b1-4)[Fuc(a1-3)]GlcNAc
# Outline: as §1
# GalNAc4S6S(b1-4)GlcNAc = target: GalNAc4S6S(b1-4)GlcNAc
# Outline: as §1
# GalNAc6S(b1-4)GlcNAc = target: GalNAc6S(b1-4)GlcNAc
# Outline: as §1
# Glc(a1-4)Glc = target: Glc(a1-4)Glc
# Outline: as §1
# [17] = target: Glc(a1-4)Glc(a1-4)Glc(a1-4)Glc
# Outline: as §1
# Glc(a1-6)Glc(a1-6)Glc = target: Glc(a1-6)Glc(a1-6)Glc
# Outline: as §1
# [18] = target: Glc(a1-6)Glc(a1-6)Glc(a1-6)Glc
# Outline: as §1
# Glc(b1-4)Glc = target: Glc(b1-4)Glc
# Outline: as §1
# Glc(b1-6)Glc = target: Glc(b1-6)Glc
# Outline: as §1
# GlcA(b1-3)Gal = target: GlcA(b1-3)Gal
# Outline: as §1
# GlcA(b1-3)GlcNAc = target: GlcA(b1-3)GlcNAc
# Outline: as §1
# GlcA(b1-6)Gal = target: GlcA(b1-6)Gal
# Outline: as §1
# [19] = target: GlcA3S(b1-3)Gal(b1-4)GlcNAc(b1-2)Man
# Outline: as §1
# [20] = target: GlcA3S(b1-3)Gal(b1-4)GlcNAc(b1-3)Gal(b1-4)Glc
# Outline: as §1
binder,measurement,setting,value
B1,glycan array binding signal (z-score),[1],0.977
same,glycan array binding signal (z-score),[2],-0.915
same,glycan array binding signal (z-score),[3],-0.295
same,glycan array binding signal (z-score),Gal(b1-4)GlcNAc6P,0.318
same,glycan array binding signal (z-score),Gal(b1-6)Gal,-0.36
same,glycan array binding signal (z-score),Gal3S(b1-3)GalNAc,0.452
same,glycan array binding signal (z-score),Gal3S(b1-3)GlcNAc,-0.139
same,glycan array binding signal (z-score),[4],-0.496
same,glycan array binding signal (z-score),Gal3S(b1-4)Glc,0.341
same,glycan array binding signal (z-score),Gal3S(b1-4)Glc6S,0.494
same,glycan array binding signal (z-score),Gal3S(b1-4)GlcNAc,-0.523
same,glycan array binding signal (z-score),Gal3S(b1-4)GlcNAc6S,1.88
same,glycan array binding signal (z-score),[5],0.973
same,glycan array binding signal (z-score),[6],0.358
same,glycan array binding signal (z-score),[7],-0.002
same,glycan array binding signal (z-score),Gal3S4S(b1-4)GlcNAc,-0.68
same,glycan array binding signal (z-score),Gal3S6S(b1-4)GlcNAc,0.111
same,glycan array binding signal (z-score),Gal3S6S(b1-4)GlcNAc6S,4.83
same,glycan array binding signal (z-score),Gal4S(b1-4)GlcNAc,-0.66
same,glycan array binding signal (z-score),Gal4S6S(b1-4)GlcNAc,0.265
same,glycan array binding signal (z-score),Gal6P(b1-4)GlcNAc,-0.882
same,glycan array binding signal (z-score),Gal6S(b1-3)GlcNAc,1.72
same,glycan array binding signal (z-score),Gal6S(b1-3)GlcNAc6S,-1.08
same,glycan array binding signal (z-score),Gal6S(b1-4)Glc,-0.154
same,glycan array binding signal (z-score),Gal6S(b1-4)Glc6S,-0.094
same,glycan array binding signal (z-score),Gal6S(b1-4)GlcNAc,-0.001
same,glycan array binding signal (z-score),Gal6S(b1-4)GlcNAc6S,2.48
same,glycan array binding signal (z-score),GalNAc(a1-3)Gal,-0.605
same,glycan array binding signal (z-score),GalNAc(a1-3)GalNAc,0.377
same,glycan array binding signal (z-score),[8],0.74
same,glycan array binding signal (z-score),[9],-0.306
same,glycan array binding signal (z-score),GalNAc(b1-3)Gal,-0.876
same,glycan array binding signal (z-score),[10],0.337
same,glycan array binding signal (z-score),[11],-0.747
same,glycan array binding signal (z-score),[12],-1.31
same,glycan array binding signal (z-score),GalNAc(b1-3)GalNAc,0.186
same,glycan array binding signal (z-score),GalNAc(b1-3)GlcNAc,0.816
same,glycan array binding signal (z-score),GalNAc(b1-4)Gal(b1-4)Glc,-0.247
same,glycan array binding signal (z-score),GalNAc(b1-4)GlcNAc,0.273
same,glycan array binding signal (z-score),[13],-0.808
same,glycan array binding signal (z-score),[14],-1.94
same,glycan array binding signal (z-score),[15],-0.859
same,glycan array binding signal (z-score),GalNAc(b1-4)GlcNAc6S,-0.478
same,glycan array binding signal (z-score),GalNAc(b1-6)GalNAc,-0.31
same,glycan array binding signal (z-score),GalNAc3S(b1-4)GlcNAc,-0.85
same,glycan array binding signal (z-score),GalNAc3S(b1-4)GlcNAc3S,1.66
same,glycan array binding signal (z-score),[16],0.231
same,glycan array binding signal (z-score),GalNAc4S6S(b1-4)GlcNAc,3.2
same,glycan array binding signal (z-score),GalNAc6S(b1-4)GlcNAc,-0.385
same,glycan array binding signal (z-score),Glc(a1-4)Glc,-0.445
same,glycan array binding signal (z-score),[17],0.29
same,glycan array binding signal (z-score),Glc(a1-6)Glc(a1-6)Glc,0.215
same,glycan array binding signal (z-score),[18],-0.88
same,glycan array binding signal (z-score),Glc(b1-4)Glc,-1.31
same,glycan array binding signal (z-score),Glc(b1-6)Glc,-0.071
same,glycan array binding signal (z-score),GlcA(b1-3)Gal,1.06
same,glycan array binding signal (z-score),GlcA(b1-3)GlcNAc,0.23
same,glycan array binding signal (z-score),GlcA(b1-6)Gal,-0.321
same,glycan array binding signal (z-score),[19],-0.037
same,glycan array binding signal (z-score),[20],0.123

# Part of the list above in a different format.
binder | measurement | setting | value
B1 | glycan array binding signal (z-score) | Gal6S(b1-3)GlcNAc6S | -1.08
same | glycan array binding signal (z-score) | [13] | -0.808
same | glycan array binding signal (z-score) | [15] | -0.859
